Results on two molecules are retold here after patent US11903385B1, “1-(butyl(2-hydroxy-3-(naphthalen-1-yloxy)propyl)amino)-3-(naphthalen-2-yloxy)propan-2-ol as an eco-friendly insecticidal agent against Spodoptera littoralis (boisd.)” (KING FAISAL UNIVERSITY, priority 2023, dated 2024).

The subject of this series is S. littoralis larvae. Nature of the series: Insecticidal leaf dip bioassay screening. Conditions: after 72 h of treatment.

On to `CCOC(=O)NCCOc1ccc(Oc2ccccc2)cc1` [Fenoxycarb], for which the “Slope ± SE” value by setting is: (2nd instar larvae) 0.238 ± 0.082; (4th instar larvae) 0.681 ± 0.251.
The like results for `CCCCN(CC(O)COc1ccc2ccccc2c1)CC(O)COc1cccc2ccccc12` (stereo not shown) [III, 1-(butyl(2-hydroxy-3-(naphthalen-1-yloxy)propyl)amino)-3-(naphthalen-2-yloxy)propan-2-ol] were, in that order, 0.918 ± 0.265 and 0.949 ± 0.262.
